Measured values: the supplement of paper PMC3334620
Over roughly 33,000 sequences, “E-score (-0.5 to 0.5)” has its median near -0.0014; the highest 2% begin near 0.25. The list shows a part of the results.

Each sequence was assayed against T1, Cad1 (UniProt P24813) (assay: PBM E-score (8-mer binding enrichment) (E-score (-0.5 to 0.5)); higher = stronger / more preferred TF binding). Settings: protein concentration: 100 nM; construct: GST-full length.
T1 sequence: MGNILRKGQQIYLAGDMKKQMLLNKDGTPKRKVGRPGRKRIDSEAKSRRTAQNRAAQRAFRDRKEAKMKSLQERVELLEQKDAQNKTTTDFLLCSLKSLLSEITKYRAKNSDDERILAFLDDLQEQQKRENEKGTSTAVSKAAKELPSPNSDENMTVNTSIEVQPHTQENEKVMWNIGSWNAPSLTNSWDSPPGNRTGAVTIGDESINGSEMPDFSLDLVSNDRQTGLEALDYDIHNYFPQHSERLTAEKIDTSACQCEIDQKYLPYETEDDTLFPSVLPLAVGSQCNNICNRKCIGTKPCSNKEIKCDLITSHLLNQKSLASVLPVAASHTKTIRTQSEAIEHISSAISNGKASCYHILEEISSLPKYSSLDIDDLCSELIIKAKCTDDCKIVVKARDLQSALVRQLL
How it was run: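 Yeast transcription factors carrying a GST tag, as full-length proteins or DNA-binding domains, were produced by PURExpress in vitro transcription/translation. About 100-200 nM protein was applied to universal all-10-mer Agilent arrays, double-stranded by primer extension on fresh or once-stripped slides. Bound protein was detected with fluorescent anti-GST, and scans were normalised with masliner. The Universal PBM Analysis Suite gave each ungapped eight-base word, pooled with its reverse complement, an E-score, a modified Wilcoxon-Mann-Whitney statistic.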

Sequence	PBM E-score
ATCTTTAG	0.0251
CATGTTGC	0.007
CCAGTGCG	-0.288
ACCAATTC	0.226
CGGCTCCA	-0.0781
ATTCCGCC	0.108
CAAACAGA	0.117
ATCTAGGA	-0.105
ACAAGCGT	0.0246
AATAAGGT	0.045
ATGATAAG	0.197
CAGCCGAA	0.00688
CACGGGAG	-0.109
ACGGGCCT	-0.153
CGCCGGTA	0.0298
GATCCGGC	0.131
AAACTATT	0.0627
GTTAAGTA	0.101
CTCATATA	0.141
CGCATCCC	-0.371
AATATCGA	0.242
AGCGCAGA	0.00651
CGTACGTA	-0.0286
CGCGAAAC	0.168
ATGGTGAA	-0.0239

Sequence	PBM E-score
AAAACTAA	0.247
GCATTCCA	-0.134
ATGAATCC	0.16
CTGATGCA	0.103
AATATTCT	0.126
CAGAACTG	0.164
AGCGGTAT	0.124
CGGACCCA	-0.00824
CAGCCAAC	0.0207
CTATATAA	0.0617
AAGGCAGG	-0.193
AACGTGAG	-0.0528
TATCTGGA	-0.125
ACTTCTAC	-0.052
CGCCGACA	-0.035
CACGCCGC	-0.207
AGCGTGTC	-0.0741
ACTGTACA	-0.103
TAAAAAAA	0.061
GGTTGAGA	-0.224
ATTCCTAG	0.0442
ACGGCTTG	-0.129
CGGTGTGC	-0.179
CCACGGTC	-0.3
ACGACCAT	-0.196

Sequence	PBM E-score
CCAACCCA	-0.235
ATTCAGGC	0.0778
ACACGGTG	-0.0772
CGGATCGA	0.149
AAAGGCGA	-0.215
GGCGCTAC	-0.214
AGAGCGTC	0.0213
GGCAGCTA	0.119
GTGCATCA	0.128
AGGTCAAT	-0.0613
GGGCGGTA	-0.222
AGGCGGAA	0.0472
TCGCACAA	0.111
AGGCAACA	-0.18
ATACATTG	0.108
ATGTAGGC	-0.118
CACCTTCG	-0.115
GGGTATAC	0.0548
CGAATTAG	0.114
GCGGACTA	0.0278
ATAAGTGG	0.14
AACGTGCG	0.0339
CTACTTCA	-0.0482
CGCACCAC	0.079
TCGCTGAA	0.0787

Sequence	PBM E-score
ACACCAAT	0.148
CTATATGA	0.188
TCCTGACA	0.125
ACCAGGAT	0.148
CCTCCGGC	-0.0803
GCAGATCA	0.091
CCTCTACG	-0.234
TAATCAAA	0.219
GCAATTAC	0.00875
AAACCTAT	0.0415
CAATAAGG	-0.212
ACTGACCA	-0.105
ATGGCGGC	-0.0946
ATTATAGG	0.0152
AAACCAAC	-0.0489
CAAGTGCA	-0.0689
ATCGTATA	0.0956
AATTACAC	0.148
GTGTGAAC	-0.0104
AACCCTGT	-0.0735
AAGGTAAC	0.0649
ACTTGCAA	0.223
TGGGCACA	0.0246
ATGGGCAA	0.0197
ATTGTTTG	0.118

Sequence	PBM E-score
TCAGTTCA	0.0157
GGGAGAAC	-0.199
TAGATCGA	0.0219
AGCCCTTG	-0.183
GATTGCTA	0.022
GATCGGCA	-0.0171
AAAAAAGC	0.145
CACTATCC	0.00309
CCGATGGC	-0.118
GCTGAATA	0.0425
AATGGTCA	0.187
TCGACAGA	-0.0541
CGCGACCC	0.0122
CAATTCTG	-0.14
TGCTAAAA	-0.0559
CGGATGTC	0.0171
ACGGAAGT	-0.0254
AGAGGGCT	-0.242
AACGTTCT	0.165
ATGCCATA	0.0121
CCGTCACC	-0.201
ACATCAGG	-0.0345
ATTTAGGG	0.0495
AGAATAGA	-0.0594
ACCAGCAT	0.101

Sequence	PBM E-score
ACGCATTA	0.145
AGGATACT	-0.141
ACTAAGGG	0.00137
AGAGTACC	-0.159
AAGCCGCC	-0.0596
AGCAGTTA	0.0263
AATACCTC	0.089
CTTCTCTA	-0.218
ACGCAAGC	0.129
TCTTCTAA	0.0169
CATAGTCC	0.00181
AGAACCAT	0.0585
TAATTTAA	0.206
GATCTGCA	-0.0306
AACATATT	0.164
GGTCATTA	0.0138
ACGCCGCT	0.0308
CACCGTGA	-0.0822
ACCCGCAG	0.016
AAACCTAC	0.0716
ATGATCAC	0.151
AGAAGTGA	0.0136
ATCTTAGC	-0.0411
ACAAAAAT	0.228
AACACCAT	0.00258

Sequence	PBM E-score
GATAGCGC	0.0821
AGATGGCC	-0.07
ACTACTCG	0.00646
CCGAAGGC	-0.0842
ATAACGCG	0.106
AACGCAAA	-0.00945
GCATTAAA	0.103
CGGCGTAC	-0.16
CATGGAAC	-0.157
CTTCTAGC	-0.245
GGATGAAA	0.195
CCACTGCC	-0.0615
CTCAAGAA	-0.141
TCATCTCA	0.0213
CCGATGTC	-0.0199
CAGCTAAC	-0.0904
ACGCCAGG	-0.15
GGAATGCC	-0.234
AACTTACT	-0.0879
ACACTGGG	-0.121
ATATCTTA	0.192
AAAGGGAG	-0.286
CTATTGTA	0.072
ACCTAGGA	-0.0276
GCCGGCAA	0.159

Some of the entries so far, as labelled records.
CGCATCCC
  PBM E-score: -0.371
AATATCGA
  PBM E-score: 0.242
AGCGCAGA
  PBM E-score: 0.00651
CGTACGTA
  PBM E-score: -0.0286

Next part:

Sequence	PBM E-score
GAGTCACC	-0.207
CGCTTGTA	0.00721
CATTGAAA	0.231
CCCATGGA	0.00891
ACCTGCAA	0.0328
CAATTCTA	-0.164
ATACATGA	0.0597
CGCCAAGA	-0.089
GCCGCTAA	0.0878
AGCTGTAC	-0.0779
ATTCATGG	0.0754
AGATGTGC	-0.0124
AAAACCAT	0.034
TTATTGAA	0.067
CGGTGGCA	-0.223
CGACCTTA	0.0416
AAGTTCTA	0.048
AATAGGTA	-0.0466
CCGCCTCC	-0.305
GCACCACA	0.104
TAACGAGA	-0.136
AGCACCAG	-0.068
AAACAGAG	-0.068
ATACCTTG	-0.00469
ATAGGAAC	0.0789

Sequence	PBM E-score
CCGGCCCG	-0.109
GGTATACA	0.0215
AGGCATAT	-0.0322
GAGCCCTC	-0.242
GTGCTATA	0.00304
CTTCAAGC	-0.0718
GGGTTCCA	-0.203
ACTGCAGG	-0.14
CGACCGTA	-0.231
ACGATTGA	0.0475
CCACCCGA	0.0445
CAGAGTTA	-0.0305
ATAATTTA	0.236
ACGTCCAG	-0.101
AGAAGACT	-0.262
AGTGCGAA	-0.0323
CTAGCCAA	0.0718
AATACTCT	0.018
ATCCCTCA	-0.0774
CATTTGCG	-0.0692
GCTCATTA	0.0873
ATTACGGC	0.124
GTTGGAAA	-0.0664
TACGTTAA	0.153
AGAATCTC	-0.122

Sequence	PBM E-score
CGTACCCA	-0.0278
AGTGTAGA	-0.0852
TAGATCTA	0.17
ATATCAAA	0.0329
AGCCGTTC	-0.215
CGCAAGCG	-0.133
GGTCGGAC	-0.0901
TACCCCTA	-0.0672
CAACACAC	0.00373
AAGTCGTC	-0.147
CTGCATTC	0.00506
AACTGGGA	-0.143
GCTACCCA	-0.112
AAAAAGGG	-0.147
AGGGAAAA	-0.125
AGAGGGTC	-0.32
GACAGAGC	-0.124
GGATACGA	-0.0996
ATAAGCCC	-0.223
ATGATAAA	0.231
ATATACGG	-0.0995
CCCCAAAA	0.0744
CATCTAGG	-0.273
CCTAATAA	0.0868
CTTCGTAA	0.0607

Shown in markdown: entries from further up

| Sequence | PBM E-score |
| --- | --- |
| CGCAAGCG | -0.133 |
| GGTCGGAC | -0.0901 |
| TACCCCTA | -0.0672 |
| CAACACAC | 0.00373 |
| AAGTCGTC | -0.147 |
| CTGCATTC | 0.00506 |
| AACTGGGA | -0.143 |

Next records follow:

Sequence	PBM E-score
AAAACCCA	0.229
GCTCGCAA	0.0456
ACTGGGTG	-0.169
ACTCTTTC	-0.083
CCTTCTGA	-0.0904
ATCTAGAA	0.124
CCTCAGGA	-0.0778
ACTCGATG	0.15
CAGGCCTG	0.0877
CGCAGGGA	-0.288
CTGCTAAG	-0.139
GAATAGAA	0.136
AGACCGAA	0.143
ACGTACGG	0.0327
ACGCATGG	-0.215
GATATCGC	0.124
AAGGCAGT	0.0323
AAGGCATA	-0.0337
GTGGGTCA	-0.31
AAGCCGTA	0.0223
ATACAAAG	0.0741
ACTTACCG	0.0895
CACCTGTA	-0.157
GGAGGCAC	-0.168
AACTCGCC	0.012

Sequence	PBM E-score
ACTAGACC	0.104
AATCATTC	0.096
ATCGGTGC	-0.00786
ACACAACG	0.0513
ATCGCTAA	0.102
GCACACGA	0.0365
CGAGGGCA	0.0579
TCACTCGA	0.04
CGAATAAA	0.129
CGAGGCAA	0.111
AGCCTTGA	-0.0232
AGGCACAG	-0.0832
ATCGGTAA	0.147
CAGACACA	0.0775
AGTTGCTA	0.0842
CACGGGCG	-0.0141
CTAGGGTC	-0.236
GTCTCCTA	-0.194
CTGAGGCC	-0.0469
TGCTAGAA	-0.134
ACAAAGAA	0.22
GAATAAGC	0.0988
GATCGGAA	-0.0356
ATTAACTG	0.129
GATAATGC	0.0145

Sequence	PBM E-score
CGTGACGC	0.202
CAAACCCC	-0.206
AATCAGCT	0.274
AACAGCGT	0.133
CACCCCAC	-0.0178
CGTTGTTA	0.117
GAGGCGCC	0.0825
CAACTACG	0.0571
CGAGTACG	0.00825
TAGGAAGA	-0.194
AGTGTTGG	0.0709
AAATATCG	0.151
CGCTGGGA	-0.221
ACCATCCT	0.0167
ACCAAGGT	-0.041
TCTGTAAA	-0.152
CCTACTTA	-0.012
ACAGACAA	0.29
GCTGGCCA	-0.0476
ATCTACAG	-0.00523
GAGCTCAC	-0.0859
CAATGTGA	0.131
AGACGGGC	-0.0989
AAGTCTCT	-0.189
ACGGATTC	0.172

Sequence	PBM E-score
TATGCGGA	0.00476
CAGGGACA	0.00346
GTATTTCA	0.144
AGCTCGGA	-0.06
CGCACGCA	0.0445
CACCGATA	-0.0463
ATCTCAGA	-0.0514
CCCTTCAG	-0.0567
AGTTATGG	-0.0184
GACTACGA	-0.0382
GATGTACC	-0.00013
GAAGCCCA	-0.168
AACCGGGC	-0.0306
ATGATGCC	-0.0995
ATTCACGC	0.0118
CCGGCAGG	-0.0958
CCTTTGAG	-0.162
CTCATATC	-0.185
TATGGTCA	0.0818

Random excerpt: six entries already listed.
Sequence	PBM E-score
CACCGATA	-0.0463
AGTTATGG	-0.0184
CCTTTGAG	-0.162
GAAGCCCA	-0.168
GTATTTCA	0.144
TATGGTCA	0.0818
